Reference: paper PMC6175882
No constants are given. Whether binding was seen depends on the method and setting. In cells and extracts the contact can be indirect. Here binding means that the protein was enriched with, or labelled near, the bait; the list need not be complete.

The chains behind the UniProt entries cited, without tags or fusion partners.
UniProt Q92922: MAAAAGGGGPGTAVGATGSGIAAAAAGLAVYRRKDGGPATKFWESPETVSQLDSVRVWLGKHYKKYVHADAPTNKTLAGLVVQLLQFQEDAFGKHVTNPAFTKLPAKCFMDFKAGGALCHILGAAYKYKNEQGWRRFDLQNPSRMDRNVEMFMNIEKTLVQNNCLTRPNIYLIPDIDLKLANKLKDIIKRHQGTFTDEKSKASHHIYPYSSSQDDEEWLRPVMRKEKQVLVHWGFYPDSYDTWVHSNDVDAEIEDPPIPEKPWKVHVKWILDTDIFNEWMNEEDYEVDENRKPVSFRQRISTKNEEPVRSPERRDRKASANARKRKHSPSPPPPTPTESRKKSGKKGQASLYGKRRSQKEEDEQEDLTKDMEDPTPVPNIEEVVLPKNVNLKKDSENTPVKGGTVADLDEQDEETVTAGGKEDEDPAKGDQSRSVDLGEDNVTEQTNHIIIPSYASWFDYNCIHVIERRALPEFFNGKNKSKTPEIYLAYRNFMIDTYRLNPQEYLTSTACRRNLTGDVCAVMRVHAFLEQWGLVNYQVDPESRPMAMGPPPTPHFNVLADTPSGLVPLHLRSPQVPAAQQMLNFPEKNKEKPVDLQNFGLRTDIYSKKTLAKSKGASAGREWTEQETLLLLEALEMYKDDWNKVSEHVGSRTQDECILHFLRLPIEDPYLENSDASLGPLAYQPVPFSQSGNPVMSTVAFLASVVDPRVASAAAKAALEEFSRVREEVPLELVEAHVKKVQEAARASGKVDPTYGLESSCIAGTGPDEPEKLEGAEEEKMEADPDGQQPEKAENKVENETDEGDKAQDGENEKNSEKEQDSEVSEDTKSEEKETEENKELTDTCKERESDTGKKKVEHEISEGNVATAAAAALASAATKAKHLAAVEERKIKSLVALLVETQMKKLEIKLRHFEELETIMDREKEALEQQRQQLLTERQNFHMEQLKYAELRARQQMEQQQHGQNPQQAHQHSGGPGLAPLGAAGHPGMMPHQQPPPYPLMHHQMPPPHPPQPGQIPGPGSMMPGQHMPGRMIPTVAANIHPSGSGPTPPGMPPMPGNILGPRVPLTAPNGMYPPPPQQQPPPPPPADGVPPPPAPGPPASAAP
UniProt P51531: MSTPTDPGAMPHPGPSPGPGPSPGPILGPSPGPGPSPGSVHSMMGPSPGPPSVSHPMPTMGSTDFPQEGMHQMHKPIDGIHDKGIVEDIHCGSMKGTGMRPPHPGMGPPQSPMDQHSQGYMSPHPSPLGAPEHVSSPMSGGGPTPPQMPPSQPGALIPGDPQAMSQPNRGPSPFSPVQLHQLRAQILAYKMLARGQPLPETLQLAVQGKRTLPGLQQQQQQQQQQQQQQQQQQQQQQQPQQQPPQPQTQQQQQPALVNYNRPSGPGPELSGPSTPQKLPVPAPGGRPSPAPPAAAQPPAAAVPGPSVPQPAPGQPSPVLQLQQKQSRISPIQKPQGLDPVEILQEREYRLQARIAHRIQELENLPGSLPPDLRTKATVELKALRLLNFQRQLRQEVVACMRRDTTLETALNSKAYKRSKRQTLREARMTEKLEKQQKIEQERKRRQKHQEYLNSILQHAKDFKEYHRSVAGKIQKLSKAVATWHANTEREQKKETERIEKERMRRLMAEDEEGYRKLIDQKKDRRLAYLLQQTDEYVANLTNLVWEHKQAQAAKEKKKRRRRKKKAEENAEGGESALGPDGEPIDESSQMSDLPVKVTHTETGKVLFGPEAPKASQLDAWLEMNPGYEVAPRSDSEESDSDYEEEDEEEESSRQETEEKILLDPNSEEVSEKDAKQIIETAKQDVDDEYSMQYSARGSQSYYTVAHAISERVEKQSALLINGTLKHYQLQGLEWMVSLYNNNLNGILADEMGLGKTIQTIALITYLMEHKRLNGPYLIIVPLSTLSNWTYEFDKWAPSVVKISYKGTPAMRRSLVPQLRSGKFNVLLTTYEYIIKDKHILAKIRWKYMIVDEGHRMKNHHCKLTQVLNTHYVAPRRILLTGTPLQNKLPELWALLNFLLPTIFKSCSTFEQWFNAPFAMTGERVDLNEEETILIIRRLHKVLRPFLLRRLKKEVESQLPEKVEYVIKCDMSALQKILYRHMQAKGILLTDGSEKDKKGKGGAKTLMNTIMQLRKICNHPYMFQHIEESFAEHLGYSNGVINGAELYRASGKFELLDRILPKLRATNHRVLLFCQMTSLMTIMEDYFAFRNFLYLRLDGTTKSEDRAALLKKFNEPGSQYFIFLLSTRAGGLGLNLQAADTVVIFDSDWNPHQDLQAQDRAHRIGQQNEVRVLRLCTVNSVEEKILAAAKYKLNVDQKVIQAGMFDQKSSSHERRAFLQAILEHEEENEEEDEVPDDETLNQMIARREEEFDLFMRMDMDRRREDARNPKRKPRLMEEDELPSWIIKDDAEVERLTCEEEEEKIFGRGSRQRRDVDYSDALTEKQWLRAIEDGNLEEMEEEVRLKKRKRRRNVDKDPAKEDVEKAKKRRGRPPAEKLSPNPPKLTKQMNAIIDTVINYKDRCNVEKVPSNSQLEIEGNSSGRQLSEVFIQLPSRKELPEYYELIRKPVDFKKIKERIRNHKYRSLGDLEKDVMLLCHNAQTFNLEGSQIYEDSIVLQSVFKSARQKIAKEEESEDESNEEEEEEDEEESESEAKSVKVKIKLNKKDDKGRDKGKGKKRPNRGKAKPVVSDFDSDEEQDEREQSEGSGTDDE

Molecular target: SMARCC1 (human (endogenous in TOV21G)) (UniProt Q92922)
Experiment: affinity purification with mass spectrometry; endogenous SWI/SNF complex immunoprecipitated by SMARCC1 from nuclear fractions of parental and resistant TOV21G cells; LC-MS/MS, stoichiometry normalised to SMARCC1

Substance: SMARCA2 (from UniProt P51531 1-1590)
- binding: binds
